Laboratory results taken from PubChem BioAssay AID504706 (National Center for Advancing Translational Sciences (NCATS), 2011).
In all, about 320,000 compounds went through this assay and about 200 (0.062%) were called active. Roughly 6% stayed inconclusive and do not appear here. Calls come from the whole dose curve; as a rule, active = well fitted activation curve with a large enough effect; inconclusive = small, poorly fitted or top-dose-only effect; inactive = no such curve, though single readings can be large or run the other way. This is a selection; strong and weak results do not stand in their true shares. Entries without a call were filed so in the source.

assay: qHTS assay for re-activators of p53 using a Luc reporter; settings: H1299 p53-A138V BP100-luciferase reporter, luminescence, 24 h; activity change, positive = activation: at 92.2 µM (top of the series); note: nearly all actives have a fitted effect of over 45% in size; for activity change, positive = activation: % of control where 0% means no effect
Procedure, shortened: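 p53-null H1299 cells stably carrying temperature-sensitive p53-A138V and a BP100-luciferase reporter were pinned with compounds (4-point, 1:5 series) and held 24 hrs at 37 deg C. Luminescence was read 10 min after detection reagent.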
Potency is the fitted concentration of half-maximal effect.

SMILES | activity change, positive = activation | Potency
O=C(NNC(=O)c1cc2ccccc2oc1=O)c1ccccc1 | 34.2% | 
CC(=O)Nc1ccc(/C=C/c2noc(-c3ccccc3O)n2)cc1 | 32% | 
CCN(CC)c1ccc2nc3ccccc3[n+](CC)c2c1 | inactive: -93.7% | 
CC[C@]12c3[nH]c4cc(-c5ccco5)ccc4c3CCN1C(=O)[C@@H](CC(=O)NC/C=C(\C)CCC=C(C)C)C[C@@H]2C(=O)N1CCN(C(=O)C2CC2)CC1 | 30.4% | 
Clc1ccc(OCc2nc(-c3ccccn3)no2)c(Br)c1 | 61.5% | 
Cc1csc2ncc(C(=O)Nc3ccc4c(c3)OCCO4)c(=O)n12 | 33.7% | 
COc1ccc(OC)c(C2C(C#N)=C(N)N(N(C)C)C3=C2C(=O)CCC3)c1 (stereo unspecified) | 47.5% | 
COc1ccc(NC(=O)Nc2ccc3nccnc3c2)cc1 | 54.6% | 
O=C(N/N=C/c1cn(-c2ccccc2)nc1-c1cc2ccccc2o1)c1ccccc1Br | 69% | 
Fc1ccc(-c2csc(/C=C/c3ccc4c(c3)OCO4)n2)cc1 | 73.7% | 
O=C(CCN1C(=O)NC2(CCCC2)C1=O)Nc1ccc(-c2nc3ccccc3s2)cc1 | 51.6% | 
CC(=O)c1ccc(N2CCN(C(=O)c3ccco3)CC2)c(F)c1 | 35.8% | 
NNC(=O)c1cccc(COc2ccc(Br)cc2)c1 | 134% | 
Cc1nc2cc(NC(=O)N3c4ccccc4CC3C)ccc2n1C (stereo unspecified) | 61% | 
COC(=O)c1ccc(NN=Nc2ccc(C)cc2)cc1 | 37.1% | 
COc1ccc2ccc3c(c2c1)N=CC1(O3)N(C)c2ccccc2C1(C)C (stereo unspecified) | inactive: -31.5% | 
Cc1ccc2nc(-c3ccc(NC(=O)COC(=O)c4ccc([N+](=O)[O-])o4)cc3)sc2c1 |  | active: 3.16 µM
CCCn1c(C)cc(C(=O)CSc2nc3ccccc3c(=O)n2Cc2ccco2)c1C |  | active: 25.1 µM
O=C(O)CCCC(=O)NCCc1ccncc1 | 39.4% | 
Cc1cccc(NC(=O)CCCN=C2NS(=O)(=O)c3ccccc32)c1C | 23.2% | 
Cc1nn(-c2ccccc2)c(C)c1/C=N/Nc1nc2ccccc2[nH]1 | 1.69% | 
COc1ccc(C(=O)c2c(C(F)(F)F)oc3c2C(=O)c2ccccc2C3=O)cc1OC | inactive: -15.5% | 
CN1c2ccccc2C(C)(C)C12C=Nc1c(ccc3ccccc13)O2 (stereo unspecified) | inactive: -30.3% | 

SMILES | activity change, positive = activation | Potency
N#Cc1cc2c(nc1SCc1nc3ccccc3[nH]1)CCC2 | 83% | 
COc1ccc(-c2cc3cc(F)ccc3cn2)cc1 | 39.2% | 
CNS(=O)(=O)c1cccc(C(=O)OCC(=O)Nc2sc3c(c2C#N)CCCCC3)c1 | 53.3% | 
Cn1c(SCCOc2ccc(Cl)cc2)nnc1-c1ccncc1 | inactive: -33.4% | 
O=c1c2c3c(sc2nc2n1CCCCC2)CCCCC3 | 46.4% | 
Nc1cc(N)nc(SCc2ccccc2)n1 | 34.5% | 
Cc1ccc2nc(-c3ccc(NC(=O)CN4C(=O)NC(C)(c5ccc(OC(F)F)cc5)C4=O)cc3)sc2c1 (stereo unspecified) | 63% | 
Cc1cccc(NC(=S)NNC(=O)COc2ccc(Cl)cc2Cl)c1 | 34.3% | 
Cc1ccc(N2C(=O)C(Cl)=C(NCc3ccccc3)C2=O)c(C)c1 | 62.8% | 
CCOc1ccc(C(NC(=O)CC)c2c(O)ccc3ccccc23)cc1 (stereo unspecified) | inactive: -64.7% | 
CCOC(=O)c1csc(NC(=O)CSc2nnnn2-c2cccc(OC)c2)n1 | 34.4% | 
C=CCc1c(Cl)nc(C)nc1NCc1ccccc1 | inactive: -31.2% | 
COc1cc(/C=C/C(=O)c2ccc(C)cc2)ccc1OCC#N | inactive: -28% | 
O=C(O)c1cccc(-n2cc(-c3cccc(C(F)(F)F)c3)cn2)c1 | 37% | 
COc1cccc(Nc2nc(NCC3CCCO3)c3ccccc3n2)c1 (stereo unspecified) | 53.1% | 
COC1(OC)C(/C=C/c2ccc(Cl)cc2)C(C#N)(C#N)C1(OC)OC (stereo unspecified) | inactive: -35.1% | 
COc1cc(C(Nc2ccccn2)c2ccc3ccc(C)nc3c2O)cc(OC)c1O (stereo unspecified) | inactive: -30.2% | 
Cc1c(C(=O)OC2CCC(C)CC2)[nH]c2c1C(=O)CCC2 (stereo unspecified) | 148% | 
COc1cc(OC)nc(-n2ncc(Br)c(Br)c2=O)n1 | inactive: -35.4% | 
CCCCn1c(SCC(=O)NCc2ccco2)nc2ccc(N3CCOCC3)cc2c1=O | inactive: -10.1% | 
COc1ccc(C(=O)COC(=O)c2ccccc2O)c(OC)c1 | 49.8% | 
Cc1ccc(C)c(N2CCN(c3cnn(-c4nc5ccccc5s4)c(=O)c3Cl)CC2)c1 | 226% | 
CCOC(=O)c1ccccc1N/C=C/C(=O)c1cccs1 |  | active: 15.8 µM

SMILES | activity change, positive = activation | Potency
N#Cc1cccc(N=Cc2c(O)ccc3ccccc23)c1 | 210% | 
CCOc1ccccc1NC(=O)Cn1nnc(C(=O)NCc2cccs2)c1N | 57.3% | 
c1ccc2oc(SCc3cn4ccccc4n3)nc2c1 | 37.4% | 
COc1ccc(N2CCN(C(=O)COC(=O)c3ccc(OC(F)F)cc3)CC2)cc1 | 38.4% | 
Cc1ccc(NC2=CC(=O)C(=O)c3ccccc32)cc1 | inactive: -36.3% | 
COCCNc1nc2sc3c(c2c(=O)n1Cc1ccco1)CCCCC3 | 40.1% | 
Cn1c(C(=O)NN)cc2cc(Oc3ccccc3)ccc21 | inactive: -39.5% | 
O=C(O)c1cc2nc3c(c(C(F)(F)F)n2n1)CCc1ccccc1-3 | 27.2% | 
Cc1ccnc(NC(=O)/C=C/c2cccs2)c1 | 106% | 
COc1ccc2nc(-c3ccccc3)[nH]c2c1 | 25.1% | 
CCOc1ccccc1/C=C/c1nc2ccccc2[nH]c1=O | inactive: -47.9% | 
COc1ccccc1N/C=C/c1onc(C)c1[N+](=O)[O-] | 34.2% | 
COc1ccc(CNC(=O)c2ccc(CNc3c(NC4CCCCC4)c(=O)c3=O)cc2)cc1 | 47.9% | 
CCn1nnc(-c2ccccc2NS(=O)(=O)c2ccc(S(=O)(=O)N3CCCCCC3)cc2)n1 | 45.5% | 
N#C/C(=C/c1ccc(N2CCOCC2)o1)c1nc2ccccc2[nH]1 | 49.4% | 
O=C(NCC1OCCc2ccccc21)c1ccc(NC(=O)c2ccc(Cl)cc2)cc1 (stereo unspecified) | inactive: -43.3% | 
Cc1cc(O)c(C2(C(F)(F)F)NCCNC2=O)cc1C (stereo unspecified) | 31.4% | 
O=C1C=CC(=O)N1CCCCCCN1C(=O)C=CC1=O | -47.4% | 
CNC(=O)N(c1ccccc1)c1ccccc1 | 32.3% | 
CN(C)c1ccc(-c2cc3ccccc3c(=O)o2)cc1 | 52.1% | 
Clc1cccc(-c2nnc(-c3ccccc3)o2)c1 | 39.3% | 
C/C(=C\C(=O)c1ccc(F)cc1)NCc1ccc2c(c1)OCO2 | 22.2% | 
COc1ccc(NC(=O)c2ccc(CN3CCc4ccccc4C3)cc2)cc1OC | inactive: -27% | 

SMILES | activity change, positive = activation | Potency
CCNC(=O)N1C(CC(=O)OCC)C(=O)NC2CCCCC21 (stereo unspecified) | 36.6% | 
CS(=O)(=O)c1nc(-c2cccs2)cc(C(F)(F)F)n1 | inactive: -30.6% | 
Cc1ccc(C)c(/C=C/C(=O)c2ccccc(=O)c2O)c1 | 52.7% | 
COC(=O)/C(=C1/Oc2cc(C)oc(=O)c2S1)C(F)(F)F | inactive: -36.3% | 
Cc1ccsc1/C=N/Nc1nc2ccccc2s1 | 80.7% | 
Cc1ccc(C(=O)COC(=O)c2cccc(N3C(=O)c4c(C)nc5ccccc5c4C3=O)c2)cc1C |  | active: 35.5 µM
O=[N+]([O-])c1ccc(/C=N/Nc2nc3ccccc3o2)cc1 | 34.7% | 
Cn1c(N2CCN(C(c3ccccc3)c3ccccc3)CC2)nc2ccccc21 | inactive: -41.5% | 
Cc1ccc2c(COC(=O)C3=COCCO3)cc(=O)oc2c1 | 69.1% | 
O=C(Nc1ccc(N2CCCC2)cc1)c1cccc(Cl)c1 | 48% | 
c1ccc2nc(-c3ccc(N4CCOCC4)cc3)ccc2c1 | 22.5% | 
Cc1ccc(S(=O)(=O)NCCC(=O)Nc2ccc(C)cc2C(=O)c2ccccc2)cc1 | 43.3% | 
COc1cccc(C(=O)Nc2nc(-c3ccc(S(=O)(=O)N4CCOCC4)cc3)cs2)c1 | inactive: -28.3% | 
Cc1cc2ncc(-c3cccs3)nc2cc1C | 50.1% | 
CCN(CC)c1ccc2nc3c4ccccc4c(=O)cc-3oc2c1 | 41% | 
Cc1ccc2oc(-c3ccc(C)c(NC(=S)NC(=O)c4cccs4)c3)nc2c1 | 125% | 
FC(F)(F)c1ccnc(NCc2ccc(Cl)cc2)n1 | 38.4% | 
COc1ccc(C(NC(=O)c2c(F)c(F)c(F)c(F)c2F)c2ccccc2)cc1 (stereo unspecified) | inactive: -24.9% | 
CCOc1ccc(CN2C(=O)c3ccccc3C2C(=O)NCc2cccnc2)cc1 (stereo unspecified) | 22.8% | 
Cn1nnc(-c2ccc(OCc3ccccc3F)cc2)n1 | 38.2% | 
Cc1nnnn1/C(=C\c1ccccc1)C(=O)OCC(=O)Nc1cccc(S(=O)(=O)N(C)C)c1 | inactive: -44.4% | 
CC(C)(C)NC(=O)NC(=O)COc1ccccc1C#N | 54.9% | 
COc1ccc2c(c1)O[C@H](c1ccc3c(c1)OCO3)[C@@H](OC(=O)Nc1cc(OC)c(OC)c(OC)c1)C2=O | inactive: 3.57% | 

SMILES | activity change, positive = activation | Potency
O=c1c2ccccc2c(C=Nc2cccc(O)c2)c(O)n1-c1ccc2c(c1)OCO2 | inactive: -33.1% | 
O=C1/C(=C\c2cccs2)Sc2ccc3ccccc3c21 | 69.1% | 
COc1ccc(-c2nc(-c3ccc(NC(=O)c4ccncc4)cc3)no2)cc1OC | 68.8% | 
O=C(Nc1ncc([N+](=O)[O-])s1)c1cccc([N+](=O)[O-])c1 | 36.6% | 
C/C(N)=C(/C#N)C(=O)CSc1nnc(-c2ccc3c(c2)OCO3)o1 | 38.7% | 
Cc1cccnc1NC(=O)c1ccc([N+](=O)[O-])o1 |  | active: 11.2 µM
O=C(Nc1ccc2c(c1)OCCO2)NC1CCCCC1 | 27.7% | 
O=C(CCNc1ccc(Cl)cc1)c1cccs1 |  | active: 15.8 µM
Cc1ccc(C(=O)N/N=C2\CCc3ccccc32)c(C)c1 | 82.9% | 
O=C(/C=C/Nc1ccc(Br)cc1F)c1ccccc1 | 25.2% | 
Cc1cc(C)n(-c2ccc(C(=O)Nc3nc4ccccc4s3)cc2)n1 | 42.3% | 
CS(=O)(=O)N1CCN(Cc2cc(=O)n3ccsc3n2)CC1 | inactive: -51.5% | 
C=CCn1c(C)cc(C(=O)CSc2nc3ccccc3o2)c1C | 49.6% | 
COc1ccc(-c2cc3nnc(-c4ccccc4)nc3s2)cc1 | 61.5% | 
Cc1ccc(-c2cc(=O)c3cc(C)ccc3[nH]2)cc1 |  | active: 22.4 µM
CC1C/C(=C\c2cccnc2)C(=O)/C(=C/c2cccnc2)C1 (stereo unspecified) | inactive: -19.6% | 
O=C(Nc1ccc(-c2nc3ccccc3o2)cc1)C1CCCO1 (stereo unspecified) | 43.3% | 
COc1ccc(-c2csc(Nc3ncccc3C)n2)cc1 |  | active: 44.7 µM
O=C(N/N=C/c1ccccc1O)C1CC(=O)N(c2ccc(Cl)cc2)C1 (stereo unspecified) |  | active: 31.6 µM

Another view of part of the listing above:
SMILES,"activity change, positive = activation",Potency
Cc1ccc(S(=O)(=O)NCCC(=O)Nc2ccc(C)cc2C(=O)c2ccccc2)cc1,43.3%,
COc1cccc(C(=O)Nc2nc(-c3ccc(S(=O)(=O)N4CCOCC4)cc3)cs2)c1,inactive: -28.3%,
Cc1cc2ncc(-c3cccs3)nc2cc1C,50.1%,
CCN(CC)c1ccc2nc3c4ccccc4c(=O)cc-3oc2c1,41%,
Cc1ccc2oc(-c3ccc(C)c(NC(=S)NC(=O)c4cccs4)c3)nc2c1,125%,
FC(F)(F)c1ccnc(NCc2ccc(Cl)cc2)n1,38.4%,
